From publication PMC11905138

The chains behind the UniProt entries cited, without tags or fusion partners. Where a name states a change or a piece, a line headed by the entry shows the natural chain unless it says otherwise.
UniProt P14618: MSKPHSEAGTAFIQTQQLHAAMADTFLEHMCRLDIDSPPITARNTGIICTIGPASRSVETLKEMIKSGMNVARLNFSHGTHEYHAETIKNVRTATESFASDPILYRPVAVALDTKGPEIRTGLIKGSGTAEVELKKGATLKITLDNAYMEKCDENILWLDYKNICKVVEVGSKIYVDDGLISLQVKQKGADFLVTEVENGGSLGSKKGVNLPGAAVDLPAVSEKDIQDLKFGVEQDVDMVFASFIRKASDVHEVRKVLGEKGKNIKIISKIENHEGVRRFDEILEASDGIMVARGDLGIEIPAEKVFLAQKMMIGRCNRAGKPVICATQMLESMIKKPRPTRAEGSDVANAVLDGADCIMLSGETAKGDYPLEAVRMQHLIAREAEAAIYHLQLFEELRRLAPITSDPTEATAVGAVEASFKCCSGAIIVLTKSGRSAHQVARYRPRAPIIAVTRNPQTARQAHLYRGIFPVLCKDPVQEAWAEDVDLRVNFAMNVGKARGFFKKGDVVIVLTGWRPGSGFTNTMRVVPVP
UniProt P46940: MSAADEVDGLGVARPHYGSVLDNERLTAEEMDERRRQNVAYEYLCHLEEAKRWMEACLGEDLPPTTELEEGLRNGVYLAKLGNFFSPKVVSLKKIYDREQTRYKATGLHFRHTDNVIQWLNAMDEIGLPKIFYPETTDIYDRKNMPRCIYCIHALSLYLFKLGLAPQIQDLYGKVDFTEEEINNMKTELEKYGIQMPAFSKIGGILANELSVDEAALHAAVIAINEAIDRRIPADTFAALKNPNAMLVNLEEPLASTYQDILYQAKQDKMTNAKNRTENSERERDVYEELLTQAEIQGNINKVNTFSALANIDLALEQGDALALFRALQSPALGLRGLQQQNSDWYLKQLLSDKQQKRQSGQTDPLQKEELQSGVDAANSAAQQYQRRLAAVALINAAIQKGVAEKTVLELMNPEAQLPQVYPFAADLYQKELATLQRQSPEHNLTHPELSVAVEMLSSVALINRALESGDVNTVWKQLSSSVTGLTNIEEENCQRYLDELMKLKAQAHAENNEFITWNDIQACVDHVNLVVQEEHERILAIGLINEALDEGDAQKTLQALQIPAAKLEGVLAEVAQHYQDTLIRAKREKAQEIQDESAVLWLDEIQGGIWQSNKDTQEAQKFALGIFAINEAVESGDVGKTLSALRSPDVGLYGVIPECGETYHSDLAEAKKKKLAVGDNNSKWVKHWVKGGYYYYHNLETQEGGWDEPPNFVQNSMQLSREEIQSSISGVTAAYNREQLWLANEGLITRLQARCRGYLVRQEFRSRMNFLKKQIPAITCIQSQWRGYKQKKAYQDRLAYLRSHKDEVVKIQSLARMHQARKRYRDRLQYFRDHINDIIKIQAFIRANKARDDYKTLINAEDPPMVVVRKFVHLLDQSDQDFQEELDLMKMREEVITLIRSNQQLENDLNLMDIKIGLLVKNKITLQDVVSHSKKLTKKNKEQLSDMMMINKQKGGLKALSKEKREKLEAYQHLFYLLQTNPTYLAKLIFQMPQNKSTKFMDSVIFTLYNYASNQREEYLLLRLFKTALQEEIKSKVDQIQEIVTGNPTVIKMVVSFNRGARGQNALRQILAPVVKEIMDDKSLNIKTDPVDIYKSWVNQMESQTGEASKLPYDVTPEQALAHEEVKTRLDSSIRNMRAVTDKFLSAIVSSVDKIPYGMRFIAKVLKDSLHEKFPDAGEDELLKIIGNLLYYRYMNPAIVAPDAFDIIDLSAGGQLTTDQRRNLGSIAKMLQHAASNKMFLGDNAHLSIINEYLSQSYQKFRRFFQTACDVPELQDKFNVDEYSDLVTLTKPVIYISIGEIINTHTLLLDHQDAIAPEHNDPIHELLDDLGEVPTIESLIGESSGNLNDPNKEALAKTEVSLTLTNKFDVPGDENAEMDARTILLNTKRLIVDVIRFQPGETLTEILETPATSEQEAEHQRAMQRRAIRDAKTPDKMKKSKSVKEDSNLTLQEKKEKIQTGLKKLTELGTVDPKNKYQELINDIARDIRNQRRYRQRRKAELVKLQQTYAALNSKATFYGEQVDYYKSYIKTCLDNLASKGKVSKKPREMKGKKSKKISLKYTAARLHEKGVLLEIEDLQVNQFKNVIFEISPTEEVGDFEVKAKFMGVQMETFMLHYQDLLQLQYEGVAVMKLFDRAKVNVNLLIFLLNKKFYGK

Columns and labels:
[1] = molecular target: Flag-PKM2^Y105F (non-phosphorylatable mutant of pyruvate kinase M2) (UniProt P14618); assay: affinity purification with mass spectrometry; anti-Flag magnetic beads on RIPA lysates of A549-PKM2^WT and A549-PKM2^Y105F cells; LC-MS/MS of the precipitated complexes
[2] = molecular target: Flag-PKM2^WT (wild-type pyruvate kinase M2, phosphorylated at Y105 in the cells) (UniProt P14618); assay: as above

binding [1]: no binding
binding [2]: binds
Substance: IQGAP1 (from UniProt P46940 1-1657)

Results are given in words; binding and its absence hold for the method and conditions named. In cells and extracts the contact can be indirect. These calls come from enrichment with a bait or labelling near it, and not all partners need be listed. For some assays here: No binding means not detected with the bait.
